Reference: patent publication US20120238503A1
No constants are given. Whether binding was seen depends on the method and setting. Some entries that bind do so weakly or less than the wild type. Sequences can lack the tags named with a protein.

Protein sequences, listed by entry. Tags and fused reporters are not part of them. Residues count along the entry.
UniProt P49134, residues 21-799: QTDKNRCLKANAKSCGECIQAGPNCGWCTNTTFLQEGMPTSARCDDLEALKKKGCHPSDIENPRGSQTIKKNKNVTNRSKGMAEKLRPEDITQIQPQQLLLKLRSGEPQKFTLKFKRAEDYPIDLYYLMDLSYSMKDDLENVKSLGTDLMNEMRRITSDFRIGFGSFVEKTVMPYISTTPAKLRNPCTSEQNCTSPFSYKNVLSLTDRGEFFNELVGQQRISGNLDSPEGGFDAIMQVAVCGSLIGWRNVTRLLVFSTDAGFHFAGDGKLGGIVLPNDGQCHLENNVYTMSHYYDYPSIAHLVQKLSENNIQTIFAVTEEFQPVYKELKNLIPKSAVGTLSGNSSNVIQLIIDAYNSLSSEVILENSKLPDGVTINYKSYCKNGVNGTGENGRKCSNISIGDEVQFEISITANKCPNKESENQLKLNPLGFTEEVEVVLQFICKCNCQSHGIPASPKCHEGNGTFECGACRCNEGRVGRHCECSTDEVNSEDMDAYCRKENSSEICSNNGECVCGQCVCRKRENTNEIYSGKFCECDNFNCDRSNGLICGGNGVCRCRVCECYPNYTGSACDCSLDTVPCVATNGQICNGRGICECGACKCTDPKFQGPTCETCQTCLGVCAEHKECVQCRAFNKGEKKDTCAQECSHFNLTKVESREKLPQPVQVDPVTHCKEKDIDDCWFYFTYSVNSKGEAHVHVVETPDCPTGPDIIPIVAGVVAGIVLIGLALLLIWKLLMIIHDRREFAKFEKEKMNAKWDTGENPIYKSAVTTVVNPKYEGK

Biological target: integrin β1 of PC12 cells (rat (PC12 cells)) (UniProt P49134)
Assay: anti-His6 immunoprecipitation from PC12 cells on rLG3-coated dishes, Western blot (associated complex)

B1: recombinant human laminin α2 chain LG3 domain protein (His6-tagged rLG3) (ligand, not shown: small tags and cut ends)
chain: VELSPVPIDVGTEINLSFSTKNESGIILLGSGGTPAPPRRKRRQTGQAYYVILLNRGRLEVHLSTGARTMRKIVIRPEPNLFHDGREHSVHVERTRGIFTVQVDENRRYMQNLTVEQPIEVKKLFVGGAPPEFQPSPLRNIPPFEGCIWNLVINSVPMDFARPVSFKNADIGRCAHQKLREDEDGAAPAEIVIQPEPVPTPAFPTPTPV
In the case of B1, the binding is reported as “binds”.
